Results reported in patent US11247980B2, “Herbicidal uracilpyrid” (BASF SE, priority 2017, dated 2022).
Some entries share one result that the patent states for a list of compounds.

Assays:
Experiment in all cases: greenhouse experiments, herbicidal activity, post-emergence treatment
Conditions in all cases: application rate of 16 g/ha, post-emergence method, scale from 0 to 100
[1] = tested on: SETVI; format: in vivo, Setaria viridis
[2] = tested on: CHEAL; format: in vivo, Chenopodium album
Source text: The culture containers used were plastic flowerpots containing loamy sand with approximately 3.0% of humus as the substrate. The seeds of the test plants were sown separately for each species.
For the pre-emergence treatment, the active ingredients, which had been suspended or emulsified in water, were applied directly after sowing by means of finely distributing nozzles. The containers were irrigated gently to promote germination and growth and subsequently covered with transparent plastic hoods until the plants had rooted. This cover caused uniform germination of the test plants, unless this had been impaired by the active ingredients. For the post-emergence treatment, the test plants were first grown to a height of 3 to 15 cm, depending on the plant habit, and only then treated with the active ingredients which had been suspended or emulsified in water. For this purpose, the test plants were either sown directly and grown in the same containers, or they were first grown separately as seedlings and transplanted into the test containers a few days prior to treatment.
Depending on the species, the plants were kept at 10-25° C. or 20-35° C., respectively. The test period extended over 2 to 4 weeks. During this time, the plants were tended, and their response to the individual treatments was evaluated.
Evaluation was carried out using a scale from 0 to 100. […]

[3] = tested on: ECHCG; format: in vivo, Echinocloa crus-galli
[4] = tested on: AMARE; format: in vivo, Amaranthus retroflexus

## CCOC(=O)[C@@H](C)Oc1ccccc1Oc1nc(-n2c(=O)cc(C(F)(F)F)n(C)c2=O)ccc1Cl [compound 20]
[1]
  herbicidal activity against SETVI: very good herbicidal activity (a very good herbicidal activity is given at values of at least 85)
[2]
  herbicidal activity against CHEAL: very good herbicidal activity (a very good herbicidal activity is given at values of at least 85)
[3]
  herbicidal activity against ECHCG: very good herbicidal activity (a very good herbicidal activity is given at values of at least 85)
[4]
  herbicidal activity against AMARE: very good herbicidal activity (a very good herbicidal activity is given at values of at least 85)
